1 substance from paper PMC7893028 can be followed below.

Protein sequences, listed by entry. Tags and fused reporters are not part of them. Residues count along the entry.
UniProt O15455, residues 24-904: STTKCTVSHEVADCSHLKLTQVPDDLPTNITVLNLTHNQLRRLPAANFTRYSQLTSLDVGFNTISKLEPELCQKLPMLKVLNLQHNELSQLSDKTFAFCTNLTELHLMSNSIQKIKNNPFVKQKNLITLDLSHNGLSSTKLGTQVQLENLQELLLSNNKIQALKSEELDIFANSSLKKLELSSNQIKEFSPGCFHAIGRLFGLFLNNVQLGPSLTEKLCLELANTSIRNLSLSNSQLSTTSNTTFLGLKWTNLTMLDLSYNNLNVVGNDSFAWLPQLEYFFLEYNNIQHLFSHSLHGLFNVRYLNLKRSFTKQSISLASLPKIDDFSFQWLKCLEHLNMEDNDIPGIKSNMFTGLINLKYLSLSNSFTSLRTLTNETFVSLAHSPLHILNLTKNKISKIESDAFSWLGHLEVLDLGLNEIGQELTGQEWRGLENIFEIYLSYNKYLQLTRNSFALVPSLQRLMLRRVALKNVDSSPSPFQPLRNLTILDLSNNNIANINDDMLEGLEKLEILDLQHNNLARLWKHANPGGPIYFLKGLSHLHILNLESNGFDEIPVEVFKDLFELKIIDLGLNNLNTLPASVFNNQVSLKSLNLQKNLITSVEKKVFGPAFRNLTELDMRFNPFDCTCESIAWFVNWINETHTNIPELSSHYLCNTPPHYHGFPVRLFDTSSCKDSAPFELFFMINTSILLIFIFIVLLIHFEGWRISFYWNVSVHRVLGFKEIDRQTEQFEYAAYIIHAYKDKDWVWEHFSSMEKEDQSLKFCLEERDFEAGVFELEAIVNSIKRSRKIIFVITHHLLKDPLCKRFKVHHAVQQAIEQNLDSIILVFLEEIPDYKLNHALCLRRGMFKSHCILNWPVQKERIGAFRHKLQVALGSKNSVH

No constants are given. Whether binding was seen depends on the method and setting. In cells and extracts the contact can be indirect. Some entries that bind do so weakly or less than the wild type. Sequences can lack the tags named with a protein.

This assay addresses T1, Flag-tagged human CLEC18A, full-length (pCMV-Tag4A-hCLEC18A) (human) (UniProt A5D8T8).
T1 sequence: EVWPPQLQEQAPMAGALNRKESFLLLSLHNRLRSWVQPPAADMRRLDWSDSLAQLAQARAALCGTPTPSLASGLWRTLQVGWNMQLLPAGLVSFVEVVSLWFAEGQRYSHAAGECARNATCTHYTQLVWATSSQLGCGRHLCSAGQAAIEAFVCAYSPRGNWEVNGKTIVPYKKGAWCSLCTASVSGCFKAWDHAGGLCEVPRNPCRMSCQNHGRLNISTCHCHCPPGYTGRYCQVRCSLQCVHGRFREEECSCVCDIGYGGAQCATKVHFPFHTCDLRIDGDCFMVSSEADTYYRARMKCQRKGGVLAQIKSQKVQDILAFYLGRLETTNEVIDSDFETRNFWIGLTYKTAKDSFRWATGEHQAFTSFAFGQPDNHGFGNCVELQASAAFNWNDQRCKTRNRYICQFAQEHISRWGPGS
The assay is described as follows: co-IP; 293T cells co-transfected with Flag-CLEC18A (full-length or deletion mutants, pCMV-Tag4A) and TLR3-HA (pUNO1), 48 h; precipitated with anti-Flag mAb, blot with anti-HA and anti-Flag.

Regarding “HA-tagged human TLR3 (pUNO1-TLR3-HA) (from UniProt O15455 24-904) (receptor)”, the binding result was “binds”.
